These are yes or no findings as the source states them, for the method shown. Binding seen in cells or lysates may run through a third protein. These calls come from enrichment with a bait or labelling near it, and not all partners need be listed.
B1: ERCC1 (protein, UniProt P07992 1-297)
chain: MDPGKDKEGVPQPSGPPARKKFVIPLDEDEVPPGVAKPLFRSTQSLPTVDTSAQAAPQTYAEYAISQPLEGAGATCPTGSEPLAGETPNQALKPGAKSNSIIVSPRQRGNPVLKFVRNVPWEFGDVIPDYVLGQSTCALFLSLRYHNLHPDYIHGRLQSLGKNFALRVLLVQVDVKDPQQALKELAKMCILADCTLILAWSPEEAGRYLETYKAYEQKPADLLMEKLEQDFVSRVTECLTTVKSVNKTDSQTLLTTFGSLEQLIAASREDLALCPGLGPQKARRLFDVLHEPFLKVP
B2: TOP1 Binding Arginine/Serine Rich Protein (TOPORS) (protein, UniProt Q9NS56 1-1045)
chain: MGSQPPLGSPLSREEGEAPPPAPASEGRRRSRRVRLRGSCRHRPSFLGCRELAASAPARPAPASSEIMASAAKEFKMDNFSPKAGTSKLQQTVPADASPDSKCPICLDRFDNVSYLDRCLHKFCFRCVQEWSKNKAECPLCKQPFDSIFHSVRAEDDFKEYVLRPSYNGSFVTPDRRFRYRTTLTRERNASVYSPSGPVNRRTTTPPDSGVLFEGLGISTRPRDVEIPQFMRQIAVRRPTTADERSLRKIQEQDIINFRRTLYRAGARVRNIEDGGRYRDISAEFFRRNPACLHRLVPWLKRELTVLFGAHGSLVNIVQHIIMSNVTRYDLESQAFVSDLRPFLLNRTEHFIHEFISFARSPFNMAAFDQHANYDCPAPSYEEGSHSDSSVITISPDEAETQELDINVATVSQAPWDDETPGPSYSSSEQVHVTMSSLLNTSDSSDEELVTGGATSQIQGVQTNDDLNNDSDDSSDNCVIVGFVKPLAERTPELVELSSDSEDLGSYEKMETVKTQEQEQSYSSGDSDVSRCSSPHSVLGKDEQINKGHCDSSTRIKSKKEEKRSTSLSSPRNLNSSVRGDRVYSPYNHRHRKRGRSRSSDSRSQSRSGHDQKNHRKHHGKKRMKSKRSRSRESSRPRGRRDKKRSRTRDSSWSRRSQTLSLSSESTSRSRSRSSDHGKRRSRSRNRDRYYLRNNYGSRYKWEYTYYSRNKDRDGYESSYRRRTLSRAHYSRQSSSPEFRVQSFSERTNARKKNNHSERKYYYYERHRSRSLSSNRSRTASTGTDRVRNEKPGGKRKYKTRHLEGTNEVAQPSREFASKAKDSHYQKSSSKLDGNYKNESDTFSDSRSSDRETKHKRRKRKTRSLSVEIVYEGKATDTTKHHKKKKKKHKKKHKKHHGDNASRSPVVITIDSDSDKDSEVKEDTECDNSGPQDPLQNEFLAPSLEPFETKDVVTIEAEFGVLDKECDIATLSNNLNNANKTVDNIPPLAASVEQTLDVREESTFVSDLENQPSNIVSLQTEPSRQLPSPRTSLMSVCLGRDCDMS
B3: POLH (protein, UniProt Q9Y253 1-713)
chain: MATGQDRVVALVDMDCFFVQVEQRQNPHLRNKPCAVVQYKSWKGGGIIAVSYEARAFGVTRSMWADDAKKLCPDLLLAQVRESRGKANLTKYREASVEVMEIMSRFAVIERASIDEAYVDLTSAVQERLQKLQGQPISADLLPSTYIEGLPQGPTTAEETVQKEGMRKQGLFQWLDSLQIDNLTSPDLQLTVGAVIVEEMRAAIERETGFQCSAGISHNKVLAKLACGLNKPNRQTLVSHGSVPQLFSQMPIRKIRSLGGKLGASVIEILGIEYMGELTQFTESQLQSHFGEKNGSWLYAMCRGIEHDPVKPRQLPKTIGCSKNFPGKTALATREQVQWWLLQLAQELEERLTKDRNDNDRVATQLVVSIRVQGDKRLSSLRRCCALTRYDAHKMSHDAFTVIKNCNTSGIQTEWSPPLTMLFLCATKFSASAPSSSTDITSFLSSDPSSLPKVPVTSSEAKTQGSGPAVTATKKATTSLESFFQKAAERQKVKEASLSSLTAPTQAPMSNSPSKPSLPFQTSQSTGTEPFFKQKSLLLKQKQLNNSSVSSPQQNPWSNCKALPNSLPTEYPGCVPVCEGVSKLEESSKATPAEMDLAHNSQSMHASSASKSVLEVTQKATPNPSLLAAEDQVPCEKCGSLVPVWDMPEHMDYHFALELQKSFLQPHSSNPQVVSAVSHQGKRNPKSPLACTNKRPRPEGMQTLESFFKPLTH
B4: ERCC4 (protein, UniProt Q92889 1-916)
chain: MESGQPARRIAMAPLLEYERQLVLELLDTDGLVVCARGLGADRLLYHFLQLHCHPACLVLVLNTQPAEEEYFINQLKIEGVEHLPRRVTNEITSNSRYEVYTQGGVIFATSRILVVDFLTDRIPSDLITGILVYRAHRIIESCQEAFILRLFRQKNKRGFIKAFTDNAVAFDTGFCHVERVMRNLFVRKLYLWPRFHVAVNSFLEQHKPEVVEIHVSMTPTMLAIQTAILDILNACLKELKCHNPSLEVEDLSLENAIGKPFDKTIRHYLDPLWHQLGAKTKSLVQDLKILRTLLQYLSQYDCVTFLNLLESLRATEKAFGQNSGWLFLDSSTSMFINARARVYHLPDAKMSKKEKISEKMEIKEGEETKKELVLESNPKWEALTEVLKEIEAENKESEALGGPGQVLICASDDRTCSQLRDYITLGAEAFLLRLYRKTFEKDSKAEEVWMKFRKEDSSKRIRKSHKRPKDPQNKERASTKERTLKKKKRKLTLTQMVGKPEELEEEGDVEEGYRREISSSPESCPEEIKHEEFDVNLSSDAAFGILKEPLTIIHPLLGCSDPYALTRVLHEVEPRYVVLYDAELTFVRQLEIYRASRPGKPLRVYFLIYGGSTEEQRYLTALRKEKEAFEKLIREKASMVVPEEREGRDETNLDLVRGTASADVSTDTRKAGGQEQNGTQQSIVVDMREFRSELPSLIHRRGIDIEPVTLEVGDYILTPEMCVERKSISDLIGSLNNGRLYSQCISMSRYYKRPVLLIEFDPSKPFSLTSRGALFQEISSNDISSKLTLLTLHFPRLRILWCPSPHATAELFEELKQSKPQPDAATALAITADSETLPESEKYNPGPQDFLLKMPGVNAKNCRSLMHHVKNIAELAALSQDELTSILGNAANAKQLYDFIHTSFAEVVSKGKGKK

Each binder was assayed against p53-BirA*-FLAG (human) (UniProt P04637) (assay: proximity labelling).

binding, binds:
B1
B2
B3
B4

Reference: publication doi:10.1101/2025.10.22.683840
